In US4851385A, “LHRH antagonist analogs having low histamine-release activity” (Indiana University Foundation, priority 1987, dated 1989):
At least one peptide structure holds a part that was inferred or is arguable (an end, a ring closure or a residue).

Test system: rat mast cells
Experiment: In vitro histamine releasing activity assay (rat peritoneal mast cell suspension, fluorometric histamine assay)
Format: cell-based
Details: phosphatidyl serine added
Protocol: The in vitro histamine release activity of the analogs was assayed by the method described below and the results are given in Table I.
A suspension of rat mast cells was added to increasing concentrations of peptide and the mixture was incubated for a few minutes followed by centrifugation to collect the histamine in the supernatant. A PIPES (piperazine-N,N'-bis[2-ethanesulfonic acid]) medium buffered at pH 7.4 containing NaCl119 mM, KCl5 mM, PIPES 25mM, NaOH 40 mM, glucose 5.6 mM, CaCl2 1 mM and 0.1% bovine serum albumin was used. This was designated as PIPES AC. Peptides were dissolved in double distilled H2 O at a concentration of 2 mg ml and stored at -20° C. They were thawed just prior to testing, duluted in PIPES AC and prewarmed for 5 min. at 37° C. Peptides studied were stable to heating at 56° C. for 2 hr., and to freezing and thawing.
Peritoneal cells were collected from male Sprague-Dawley rats weighing 200 to 250 gm and purchased from Harlan (Madison, Wis.). After euthanasia by CO2, the peritoneal cavity was washed with 50 ml PIPES AC medium containing 20 units of heparin. Following centrifugation at 200×g for 8 min. at 4° C., cells were washed again and finally resuspended to a concentration of 8 to 24×10^5 total leukocytes/ml in PIPES AC. This suspension contained approximately 5-10% mast cells. […]

CC(C)C[C@H](NC(=O)CNC(=O)[C@H](Cc1ccc(O)cc1)NC(=O)[C@H](CO)NC(=O)[C@H](Cc1c[nH]c2ccccc12)NC(=O)[C@H](Cc1c[nH]cn1)NC(=O)[C@@H]1CCC(=O)N1)C(=O)N[C@@H](CCCNC(=N)N)C(=O)N1CCC[C@H]1C(=O)NCC(N)=O [LHRH, luteinizing hormone-releasing hormone]
enhancement of histamine release by phosphatidyl serine: no enhancement of histamine release
